Experimental data: PubChem BioAssay AID1508588 (Peter MacCallum Cancer Centre, 2020)
Test: 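Knock-downs boosting vemurafenib effects on melanoma cell growth or lactate release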 (primary screen). Cells: human WM266.4 melanoma cells (BRAF V600 mutant). Reagents: siRNA pool against human genes, 40 nM. Duration: 96 h from transfection to read-out. Challenge: vemurafenib 300 nM (about IC25), added 48 h after transfection, for 48 h; comparison arm got DMSO vehicle only. Measurement: 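Cell gain (DAPI nuclei at end minus before drug, mean of two replicates) and medium lactate by absorbance per cell, both as ratio to non-targeting siRNA, also grouped into fold-change classes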. Scale: cell gain with vemurafenib: higher = more cell gain than with non-targeting siRNA; lactate per cell with vemurafenib: higher = more lactate made per cell. Call rule: 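a knock-down counts as enhancing when its fold-change classes with vehicle and with vemurafenib, taken together, show a stronger drug effect on cell gain or lactate per cell; exact class pairs not stated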. Calls: active = enhances vemurafenib effect; inactive = no enhancement seen.
This is an unselected part of about 18,000 reagents tested. 790 of all reagents (4.4%) were called active. 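Calls rest on a combination of fold-change classes in drug and vehicle arms, not all shown here.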 Unmarked entries are inactive.

no.	gene	cell gain with vemurafenib	lactate per cell with vemurafenib
1	UBR1	0.71	1.2
2	KYNU	0.57	1.36
3	HMOX1	0.94	0.9
4	GALNT1	0.48	1.5
5	ZNF581	0.41	1.02
6	SLC66A2	0.78	1.25
7	ACVR1B	0.83	0.64
8	NEK6	0.65	1.32
9	DNM2	0.59	1.21
10	OR5M10	0.7	1.17
11	PARS2	0.6	1.23
12	RPL36AL	-0.03 (active)	0.26
13	PSMB1	0.01	1.46
14	MT1HL1	0.33	0.88
15	BMPR2	0.53	1.16
16	SP3	0.13	2.35
17	CDRT15P3	0.05	2.38
18	ZNF404	0.79	1
19	TNPO1	0.74	0.57
20	SSX4	0.83	0.59
21	GNA12	0.31	0.76
22	NOD2	0.36	0.67
23	LMO4	0.62	0.84
24	TEDC2	0.12	0.95
25	WDR83OS	0.15	1.38
26	ME1	1.1	0.71
27	CAMKK2	0.9	0.56
28	SKP2	0.59	1.11
29	WNT5B	0.96	0.68
30	ARHGEF26	0.74	0.84
31	MEGF6	0.66	1.12
32	RAB3B	0.38	0.76
33	PFKL	0.81	1.12
34	RABL2B	0.17	1.44
35	SERPINB8	0.66	0.56
36	EPN1	0.73	0.38
37	TMEM106C	0.9	0.9
38	PRSS16	1.15 (active)	0.4
39	DAP3	0.47	0.98
40	MADCAM1	0.7	0.29
41	FBXO6	0.47	1.77
42	CTC1	0.97	0.8
43	CYP8B1	1.15	0.5
44	TSLP	0.92	0.43
45	SMAP2	1.04	0.44
46	CSAG1	0.33	3.23
47	SSBP3	0.29	1.6
48	RYR2	0.96	0.97
49	RYR1	0.54	0.84
50	HTN3	0.19	1.05
51	BBS4	0.97	0.94
52	SMCO4	0.71	1.21
53	TREM1	0.2	0.8
54	SIDT1	0.59	0.98
55	CLCN7	-0.06 (active)	0.37
56	TCF7	0.58	1.04
57	CENPV	0.83	0.68
58	KANK3	0.63 (active)	0.66
59	PACSIN2	0.52	1
60	GALNT18	0.56	1.56
61	CPD	0.37	1.21
62	NEB	0.92	0.82
63	ACSS1	0.27	0.98
64	UBE2O	0.75	0.77
65	OR51A4	0.6	1.31
66	COX5A	1.02	1.21
67	LETM1	0.33	0.83
68	CLEC18C	0.93	0.68
69	CLPSL1	0.88 (active)	0.44
70	TGFBR1	1.21	0.74
71	FBXW11	0.68	0.51
72	B2M	0.32	1.16
73	MAPK7	0.6	1.09
74	TPP1	0.59	0.56
75	CHST10	0.65	0.99
76	ETV5	0.77	0.71
77	WDR5B	0.39	1.29
78	FNDC8	0.32	2.02
79	TTF2	0.4	1.33
80	PRORSD1P	0.34	0.58
81	FGF10	0.72	0.52
82	ARHGAP18	0.61	1.17
83	VSIG1	0.69	0.8
84	GUCD1	0.81	1.36

Targets listed so far whose target name begins with N or n:
gene	cell gain with vemurafenib	lactate per cell with vemurafenib
NEK6	0.65	1.32
NOD2	0.36	0.67
NEB	0.92	0.82
